In patent publication US7790761B2, “Blockade of voltage dependent sodium channels” (University College London, priority 2000, dated 2010):
At least one compound was matched to its structure with a doubt left.

Test system: sodium channels
Experiment: [14C]-labelled guanidine flux through sodium channels
Type: biochemical, rat
Conditions: inhibition of flux of [14C]-labelled guanidine through sodium channels

## COC(=O)c1ccc(-c2nn(Cc3ccccc3)c3ccccc23)o1 [Example 3, 1-Benzyl-3-(5-methoxycarbonyl-2-furyl)-1H-indazole]
  IC50: 15.5 µM
